Some of the results follow. Shown are side measurements of this screen, not its main read-out; they come without a call. Compounds called inactive in the main read-out are mostly missing here. Words in brackets tell the shape of the fitted curve; partial curves, single points and poor fits give uncertain potencies.
Assay: qHTS Assay to Find Inhibitors of Chronic Active B-Cell Receptor Signaling
Conditions: ABC-DLBCL IkBa-CBG/CBR reporter, luminescence ratio (green luciferase fused to IkBa over red control in TMD8 lymphoma cells), 4 h
Summary of the method: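 Concentration-response series (up to 46 uM) were applied to TMD8 dual-reporter cells for 4 h at 37C with doxycycline. Green/red ratio, after filter-overlap correction, defined %Activity; red signal alone was normalised to basal cells and zero luminescence.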

[1] = measured here: CBR red luminescence, cell number
[2] = measured here: IkBa-CBG green luminescence

SMILES	AC50 [1]	AC50 [2]
Brc1ccccc1-c1nnc(COc2cccc3cccnc23)o1	8.2 µM [falling, partial curve, poor fit]	
COc1ccc(-c2n[nH]c(=S)o2)c(OC)c1	16.4 µM [rising, single point]	
NC(=O)CSc1ccc(S(=O)(=O)N2CCCCC2)cn1	0.103 µM [rising, full curve, poor fit]	
COc1cc(NC(=O)C2CCC(CNc3c(N4CCCCC4)c(=O)c3=O)CC2)cc(OC)c1 (centres undefined)	5.8 µM [rising, single point]	
O=C(c1ccc(N2CCN(C(=O)c3ccc(F)c(F)c3)CC2)cc1)c1cccc(F)c1	0.282 µM [falling, full curve, poor fit]	
COc1ccc(-c2nnn(CC(=O)N(CC(=O)NC3CCCC3)Cc3ccco3)n2)cc1OC	5.01 µM [rising, partial curve]	
Cc1ccccc1Oc1ccc(-c2nc(N)nc(N)n2)cc1	11.2 µM [rising, partial curve]	
Cc1cc(C)nc(NC(=O)C(c2ccccc2)c2ccccc2)c1	29.1 µM [falling, partial curve, poor fit]	
CC(C)N(Cc1ccccc1)C(=O)CN1C(=O)NC2(CCCC2)C1=O	23.1 µM [rising, single point]	
Cc1ccccc1C(=O)NCCCCc1ccccc1	10.3 µM [falling, partial curve]	
Cc1ccc(/C=N/n2c(-c3ccc(Cl)cc3)n[nH]c2=S)o1	35.5 µM [rising, single point]	
CCOC(=O)c1cnc2ccc(OCC)cc2c1NCCCN1CCOCC1	7.08 µM [falling, partial curve, poor fit]	
CCN(CC)c1ccc(/C=N/NC(=O)c2ccoc2C)c(O)c1	10 µM [falling, partial curve]	
CCC(C)(C)n1nnnc1CN1CCc2ccccc21	32.6 µM [rising, partial curve, poor fit]	
COc1ccc(Cl)cc1NC(=O)Nc1cc(C)on1	8.91 µM [falling, partial curve]	
Cc1ccc(Cn2nc(C)c(C(=O)NCC(c3cccs3)N3CCOCC3)c2Cl)cc1 (centres undefined)	18.4 µM [falling, single point]	
CCOC(=O)CC(=O)CSc1ncnc2c1cnn2-c1ccccc1	15.8 µM [falling, single point]	
Cc1ccc(/C=N/NC(=O)c2cc(C3CC3)nc3ccccc23)o1		23.1 µM [falling, single point]
O=C(CC(c1ccccc1)c1ccccc1)Nc1ccc(Cl)cn1	29.1 µM [falling, single point]	
Cc1nc(C)c(C(=O)N2CCCC(C(=O)c3ccc4ccccc4c3)C2)s1 (centres undefined)	11.2 µM [falling, partial curve]	
N#CC1=C(S)N=C(N)C(c2nc(-c3ccccc3)cs2)C12CCCCC2 (centres undefined)	3.66 µM [falling, single point]	
Cc1ccc(C)c(NC(=S)NNc2ccc(F)cc2F)c1	22.4 µM [falling, single point]	

19 entries from above, with bars between the fields:
SMILES | AC50 [1] | AC50 [2]
Brc1ccccc1-c1nnc(COc2cccc3cccnc23)o1 | 8.2 µM [falling, partial curve, poor fit] | 
COc1ccc(-c2n[nH]c(=S)o2)c(OC)c1 | 16.4 µM [rising, single point] | 
COc1cc(NC(=O)C2CCC(CNc3c(N4CCCCC4)c(=O)c3=O)CC2)cc(OC)c1 (centres undefined) | 5.8 µM [rising, single point] | 
O=C(c1ccc(N2CCN(C(=O)c3ccc(F)c(F)c3)CC2)cc1)c1cccc(F)c1 | 0.282 µM [falling, full curve, poor fit] | 
COc1ccc(-c2nnn(CC(=O)N(CC(=O)NC3CCCC3)Cc3ccco3)n2)cc1OC | 5.01 µM [rising, partial curve] | 
Cc1ccccc1Oc1ccc(-c2nc(N)nc(N)n2)cc1 | 11.2 µM [rising, partial curve] | 
Cc1cc(C)nc(NC(=O)C(c2ccccc2)c2ccccc2)c1 | 29.1 µM [falling, partial curve, poor fit] | 
CC(C)N(Cc1ccccc1)C(=O)CN1C(=O)NC2(CCCC2)C1=O | 23.1 µM [rising, single point] | 
Cc1ccc(/C=N/n2c(-c3ccc(Cl)cc3)n[nH]c2=S)o1 | 35.5 µM [rising, single point] | 
CCN(CC)c1ccc(/C=N/NC(=O)c2ccoc2C)c(O)c1 | 10 µM [falling, partial curve] | 
CCC(C)(C)n1nnnc1CN1CCc2ccccc21 | 32.6 µM [rising, partial curve, poor fit] | 
COc1ccc(Cl)cc1NC(=O)Nc1cc(C)on1 | 8.91 µM [falling, partial curve] | 
Cc1ccc(Cn2nc(C)c(C(=O)NCC(c3cccs3)N3CCOCC3)c2Cl)cc1 (centres undefined) | 18.4 µM [falling, single point] | 
CCOC(=O)CC(=O)CSc1ncnc2c1cnn2-c1ccccc1 | 15.8 µM [falling, single point] | 
Cc1ccc(/C=N/NC(=O)c2cc(C3CC3)nc3ccccc23)o1 |  | 23.1 µM [falling, single point]
O=C(CC(c1ccccc1)c1ccccc1)Nc1ccc(Cl)cn1 | 29.1 µM [falling, single point] | 
Cc1nc(C)c(C(=O)N2CCCC(C(=O)c3ccc4ccccc4c3)C2)s1 (centres undefined) | 11.2 µM [falling, partial curve] | 
N#CC1=C(S)N=C(N)C(c2nc(-c3ccccc3)cs2)C12CCCCC2 (centres undefined) | 3.66 µM [falling, single point] | 
Cc1ccc(C)c(NC(=S)NNc2ccc(F)cc2F)c1 | 22.4 µM [falling, single point] | 

More results follow:

SMILES	AC50 [1]	AC50 [2]
O=C1C(=O)c2c(C(=O)c3ccccc3)coc2-c2ccccc21	29.1 µM [rising, single point]	29.1 µM [falling, single point]
COc1ccc(/C=N/NC(=O)c2ccc(N(C)S(=O)(=O)c3ccccc3)cc2)c(OC)c1	35.5 µM [falling, partial curve, poor fit]	
Clc1ccc(/C=C/c2nc3ccccc3[nH]2)cc1	1.41 µM [falling, full curve]	
COC(=O)c1cccc(-c2noc(-c3ccccc3F)n2)c1	1.03 µM [rising, partial curve]	
CC(=O)c1ccc(OCCCC(=O)Nc2ccc(C)c(S(=O)(=O)N(C)C)c2)cc1	2.59 µM [rising, full curve]	
COc1ccc(NC(=O)C(C)N2c3cccc4cccc(c34)S2(=O)=O)c(OC)c1 (centres undefined)	0.794 µM [rising, full curve, poor fit]	7.08 µM [falling, partial curve, poor fit]
COc1cccc(-c2nnc(SCC(=O)N(C(C)C)C(C)C)o2)c1	32.6 µM [falling, single point]	
Cc1ccc(C)c(SCc2noc(C(=O)NC(C)C)c2C(=O)O)c1	10 µM [falling, partial curve, poor fit]	
CC(=O)Oc1ccccc1C1=NN(C(C)=O)C(c2ccccc2)C1 (centres undefined)	7.94 µM [falling, partial curve]	
CC(=O)c1sc(NC(=O)C2(F)C(F)(F)C(F)(F)C(F)(F)C(F)(F)C2(F)F)nc1C	6.31 µM [falling, full curve, poor fit]	
COc1ccc2cc(CN(Cc3cccs3)Cc3nnnn3Cc3ccccc3)c(=O)[nH]c2c1	29.1 µM [falling, single point]	
CSc1ccccc1NC(=O)c1ccc(N2CCCC2=O)cc1	16.4 µM [falling, single point]	
COc1ccc(/C(N)=N/OC(=O)CSc2ccc(C)cc2)cc1OC	13 µM [rising, partial curve, poor fit]	
CC(C)(C)c1ccc(-c2conc2N)cc1	29.1 µM [rising, single point]	
S=C(NNc1ccc2ccccc2c1)NC1CCCCC1	23.1 µM [falling, partial curve, poor fit]	
COC(=O)c1ccc(/C=C/c2ccc3cccc(OC)c3n2)cc1	0.0461 µM [falling, full curve]	
O=c1cc(O)nc[nH]1	7.94 µM [falling, partial curve, poor fit]	
O=C(O)c1ccc(S(=O)(=O)c2ccccc2C(=O)O)c([N+](=O)[O-])c1	0.891 µM [falling, full curve]	
COc1ccc(-c2oc3ccccc3c2C#CC(C)(C)O)cc1	23.1 µM [falling, single point]	25.9 µM [rising, partial curve, poor fit]
O=S(=O)(/N=C(/c1ccccc1)N1CCOCC1)c1ccc(F)cc1F	2.06 µM [rising, full curve]	
Cc1ccc(OCCOCCOc2ccc(Br)cc2/C=N\NC(=O)c2ccncc2)cc1	2.91 µM [rising, partial curve, poor fit]	29.1 µM [falling, single point]
CCOC(=O)c1csc(NC(=O)CSc2nnc(C3CC3)n2C)n1	0.103 µM [falling, full curve]	

SMILES	AC50 [1]	AC50 [2]
O=C(CCN1C(=O)C2CC=CCC2C1=O)Nc1nc(-c2ccc(F)c(F)c2)cs1 (centres undefined)	9.2 µM [rising, partial curve]	
CCN(CC)S(=O)(=O)c1ccc2c3c(cccc13)C(=O)S2	35.5 µM [rising, partial curve, poor fit]	
O=C(CSC1=NCCS1)NC(c1ccccc1)c1ccccc1		32.6 µM [falling, partial curve, poor fit]
COCC(=O)Nc1cc(C(=O)NCCc2ccccc2)ccc1Cl	13 µM [falling, partial curve]	
c1ccc(C(c2nnnn2C2CCCCC2)N2CCc3ccccc3C2)nc1 (centres undefined)	0.891 µM [rising, full curve, poor fit]	
CC(=O)c1ccc(NC(=S)N2CCCCCC2)cc1	17.8 µM [rising, single point]	
C=CCOc1c(Br)cc(/C=N/Nc2ccc(C(=O)O)cc2)cc1OCC	0.013 µM [falling, full curve, poor fit]	
O=C(OCC(=O)N1CCOCC1)c1ccc2[nH]c3c(c2c1)CCCC3	5.62 µM [rising, single point]	
CCN(CC(=O)NCc1ccccn1)S(=O)(=O)c1cc(Cl)ccc1Cl	29.1 µM [rising, single point]	
CC(C)c1ccc(O)c(NC(=S)NC(=O)CCc2ccccc2)c1	12.6 µM [rising, partial curve, poor fit]	
CCOC(=O)C1C(c2ccc(O)c(OC)c2)NC(=S)NC1(O)C(F)(F)F (centres undefined)	25.9 µM [rising, partial curve, poor fit]	
CSc1ccc(CN(C)CC(=O)Nc2cccc(Br)c2)cc1	23.1 µM [falling, single point]	
O=C1OCCC1Sc1nc2ccccc2s1 (centres undefined)	0.82 µM [falling, full curve, poor fit]	
CC(C)n1c(SCC(=O)Nc2ccccc2)nc2c1c(=O)n(C)c(=O)n2C		5.17 µM [falling, partial curve, poor fit]
Cc1nc(C)c(-c2csc(Nc3ccc(O)cc3C)n2)s1	0.708 µM [rising, full curve]	2.51 µM [falling, full curve, poor fit]
Oc1ccc(N=Nc2cccc(Cl)c2)cc1C=Nc1ccc(N2CCOCC2)cc1	20.6 µM [rising, partial curve, poor fit]	
O=C(O)C1CCC(N2C(=O)C3CCCCC3C2=O)CC1 (centres undefined)	29.1 µM [falling, single point]	
O=C1CC(c2ccccc2)CN1C(=O)c1cccc([N+](=O)[O-])c1 (centres undefined)	29.1 µM [rising, single point]	
CCOC(=O)Cc1csc(NC(=O)CSc2nc(N)c3c(C)c(C)sc3n2)n1	14.6 µM [rising, single point]	
CCOc1ccc(Nc2ncnc3ccc([N+](=O)[O-])cc23)cc1	1.26 µM [falling, full curve, poor fit]	
